Test results taken from patent US20180066263.
For at least one entry, the source does not settle the construct or the ends of the probe.

The chains behind the UniProt entries cited, without tags or fusion partners. Residues count along the entry.
UniProt P35968, 20-764: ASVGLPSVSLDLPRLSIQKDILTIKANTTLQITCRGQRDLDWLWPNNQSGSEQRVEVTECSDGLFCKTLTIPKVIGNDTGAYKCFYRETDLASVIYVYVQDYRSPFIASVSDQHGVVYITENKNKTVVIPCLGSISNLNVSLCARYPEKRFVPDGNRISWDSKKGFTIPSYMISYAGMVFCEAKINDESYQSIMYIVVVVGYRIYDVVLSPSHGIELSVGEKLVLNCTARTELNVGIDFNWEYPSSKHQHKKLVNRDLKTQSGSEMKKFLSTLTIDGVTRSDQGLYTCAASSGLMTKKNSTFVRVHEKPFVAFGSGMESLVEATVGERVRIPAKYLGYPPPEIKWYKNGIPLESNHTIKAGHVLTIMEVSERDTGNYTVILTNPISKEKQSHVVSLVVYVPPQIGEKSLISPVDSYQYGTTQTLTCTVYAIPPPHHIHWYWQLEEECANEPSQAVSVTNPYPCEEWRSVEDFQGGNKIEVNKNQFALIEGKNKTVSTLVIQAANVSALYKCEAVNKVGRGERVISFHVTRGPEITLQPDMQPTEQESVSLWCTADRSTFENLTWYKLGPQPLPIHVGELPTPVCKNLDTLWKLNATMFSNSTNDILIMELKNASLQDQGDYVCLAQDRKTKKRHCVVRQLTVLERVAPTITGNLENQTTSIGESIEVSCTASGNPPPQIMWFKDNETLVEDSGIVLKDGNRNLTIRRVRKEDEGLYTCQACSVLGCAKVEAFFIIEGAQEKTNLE
UniProt P17948, 27-758: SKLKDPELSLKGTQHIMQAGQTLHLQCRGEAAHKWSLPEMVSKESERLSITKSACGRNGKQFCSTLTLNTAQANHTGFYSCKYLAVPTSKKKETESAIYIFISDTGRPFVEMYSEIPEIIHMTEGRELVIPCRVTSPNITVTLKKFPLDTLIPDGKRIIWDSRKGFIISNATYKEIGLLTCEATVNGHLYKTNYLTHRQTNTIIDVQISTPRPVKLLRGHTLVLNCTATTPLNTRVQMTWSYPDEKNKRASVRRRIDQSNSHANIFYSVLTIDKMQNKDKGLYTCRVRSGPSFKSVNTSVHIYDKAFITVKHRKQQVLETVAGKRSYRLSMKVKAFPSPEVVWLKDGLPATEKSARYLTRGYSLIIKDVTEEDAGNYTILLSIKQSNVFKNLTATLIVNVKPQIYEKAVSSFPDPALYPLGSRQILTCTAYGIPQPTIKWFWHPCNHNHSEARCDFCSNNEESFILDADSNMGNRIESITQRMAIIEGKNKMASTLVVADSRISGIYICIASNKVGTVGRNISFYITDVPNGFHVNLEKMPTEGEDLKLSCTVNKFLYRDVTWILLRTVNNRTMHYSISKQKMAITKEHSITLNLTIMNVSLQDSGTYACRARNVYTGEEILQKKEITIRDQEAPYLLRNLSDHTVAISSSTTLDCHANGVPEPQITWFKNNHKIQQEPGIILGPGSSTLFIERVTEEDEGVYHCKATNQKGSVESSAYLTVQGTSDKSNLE

Legend:
VEGFR2 (Homo sapiens) = VEGFR2 (Homo sapiens) (UniProt P35968); assay: SPR; details: aptamer immobilized, unit printed as M-1, purified recombinant protein, protein details: R&D Systems, single-stranded DNA
VEGFR1 (Homo sapiens) = VEGFR1 (Homo sapiens) (UniProt P17948); assay: SPR; details: unit printed as M-1, purified recombinant protein, protein details: R&D Systems, single-stranded DNA
[1] = VEGFR1 immobilized, single cycle analysis <20 nM
[2] = aptamer immobilized, single cycle analysis 50-10 nM
[3] = VEGFR1 immobilized, single cycle analysis <10 nM

Sequence: GTGATGGTCGGAGATGGATGGGGCAGCTTAGGTC [No. 11]
- Kd (VEGFR2 (Homo sapiens); single cycle analysis 300-19 nM, column printed VEGFRx): 83 nM
- Kd (VEGFR2 (Homo sapiens); single cycle analysis <300 nM): 82.8 nM
- Kd (VEGFR1 (Homo sapiens); [1]): 5.12 nM
- Kd (VEGFR1 (Homo sapiens); aptamer immobilized, single cycle analysis 25-5 nM): 0.0077 nM

Sequence: GTCGTGTTTGTTGTTGTTTTCATTTTTGCGGCCC [No. 01]
- Kd (VEGFR2 (Homo sapiens); single cycle analysis <300 nM): 103 nM

Sequence: GGGGGAGTGATGTTGGGGTTGGGGGGTGGGGGCG [No. 24]
- Kd (VEGFR2 (Homo sapiens); single cycle analysis <300 nM): 22 nM
- Kd (VEGFR1 (Homo sapiens); [1]): 0.353 nM

Sequence: GTCGTGGCGGGGTTTTGTTTTGGTCGGGGGGTG [No. 17]
- Kd (VEGFR2 (Homo sapiens); single cycle analysis 100-12.5 nM): 12 nM
- Kd (VEGFR2 (Homo sapiens); single cycle analysis <100 nM): 164 nM
- Kd (VEGFR1 (Homo sapiens); [1]): 1.19 nM
- Kd (VEGFR1 (Homo sapiens); [2]): 0.26 nM

Sequence: TAGGTGGGTTCGGGGGGTGCTGGTCGGGGGGTG [No. 22]
- Kd (VEGFR2 (Homo sapiens); single cycle analysis 240-15 nM): 31 nM
- Kd (VEGFR2 (Homo sapiens); single cycle analysis <240 nM): 31 nM
- Kd (VEGFR1 (Homo sapiens); [3]): 1.07 nM
- Kd (VEGFR1 (Homo sapiens); [2]): 0.76 nM

Sequence: GGGGGGTGGGGTCGGGTGTTGGTCGTGGGGGGCG [No. 18]
- Kd (VEGFR2 (Homo sapiens); single cycle analysis 150-8 nM): 17 nM
- Kd (VEGFR2 (Homo sapiens); single cycle analysis <150 nM): 16.9 nM
- Kd (VEGFR1 (Homo sapiens); [1]): 2.09 nM
- Kd (VEGFR1 (Homo sapiens); [2]): 0.012 nM

Sequence: TGGGTTTAGGTTGGGTGGTTGGGTGGGGGGGGCG [No. 23]
- Kd (VEGFR2 (Homo sapiens); single cycle analysis 300-19 nM): 15 nM
- Kd (VEGFR2 (Homo sapiens); single cycle analysis <300 nM): 14.9 nM
- Kd (VEGFR1 (Homo sapiens); [3]): 0.922 nM
- Kd (VEGFR1 (Homo sapiens); aptamer immobilized, single cycle analysis 33-10 nM): 0.38 nM

Sequence: GCTGATAGGATGGGTTGTAGGTCTAGGGGGGGGCC [No. 02]
- Kd (VEGFR2 (Homo sapiens); single cycle analysis <300 nM): 31.5 nM
